The chains are these.
B1: Empty spiracles (protein, UniProt P18488 1-494)
chain: MTKMIPPVPTAAAAVMMPTPKQKIGFSIESIVGNDVSTAGGNSTPDLSGPQSPPPGERNVPGSPPQTPPATLTLIPGSPPHHLMAPPAHGLPYPHPHAQQQHLQAPHPHPHLSPAQQHVLHQHLLMQQQHPGTPKSHQDIQELLQRLHHNAAMASGLSPLQTRLSPETEQPQMAVSLKRERSPAPPAMEQAENPAQRIQPPHTPPKSVSPQSSQPSSSPTLLISSPHATPPQQQQQQPPPNYPKPAMMHPGGAGPMMMPGMPPAGLVRPFPMGPGGPPMPQGQPGLPDIKALPPYINAPPELPPQHNPHLIAAAQFQMAAALQAGHVLGPAAAAAAAAGLPPHAAQFMPNPGMARDSYQLYPWLLSRHGRIFPHRFPGSFLVPPFRKPKRIRTAFSPSQLLKLEHAFESNQYVVGAERKALAQNLNLSETQVKVWFQNRRTKHKRMQQEDEKGGEGGSQRNMHNGSGDEDDDELIDMEMDECPSDEEHELDASH
B2: Sloppy paired 1 (protein, UniProt P32030 1-322)
chain: MVKSEMEFKSNFSIDAILAKKPINTATQPIKTEPVHHHHQYVHPYSNSDGELSASEDFDSPSRTSTPMSSAAESLSSQNNDKLDVEFDDELEDQLDEDQESEDGNPSKKQKMTAGSDTKKPPYSYNALIMMAIQDSPEQRLTLNGIYQYLINRFPYFKANKRGWQNSIRHNLSLNKCFTKIPRSYDDPGKGNYWILDPSAEEVFIGETTGKLRRKNPGASRTRLAAYRQAIFSPMMAASPYGAPASSYGYPAVPFAAAAAAALYQRMNPAAYQAAYQQMQYQQAPQAHHHQAPHPAQMQGYPQQLNAELFQRMQFFGKFPSS
B3: Engrailed (protein, UniProt P02836 1-552)
chain: MALEDRCSPQSAPSPITLQMQHLHHQQQQQQQQQQQMQHLHQLQQLQQLHQQQLAAGVFHHPAMAFDAAAAAAAAAAAAAAHAHAAALQQRLSGSGSPASCSTPASSTPLTIKEEESDSVIGDMSFHNQTHTTNEEEEAEEDDDIDVDVDDTSAGGRLPPPAHQQQSTAKPSLAFSISNILSDRFGDVQKPGKSMENQASIFRPFEASRSQTATPSAFTRVDLLEFSRQQQAAAAAATAAMMLERANFLNCFNPAAYPRIHEEIVQSRLRRSAANAVIPPPMSSKMSDANPEKSALGSLCKAVSQIGQPAAPTMTQPPLSSSASSLASPPPASNASTISSTSSVATSSSSSSSGCSSAASSLNSSPSSRLGASGSGVNASSPQPQPIPPPSAVSRDSGMESSDDTRSETGSTTTEGGKNEMWPAWVYCTRYSDRPSSGPRYRRPKQPKDKTNDEKRPRTAFSSEQLARLKREFNENRYLTERRRQQLSSELGLNEAQIKIWFQNKRAKIKKSTGSKNPLALQLMAQGLYNHTTVPLTKEEEELEMRMNGQIP
B4: Brinker (protein, UniProt Q9XTN4 1-704)
chain: MDSSSEQLNGSGALNFKRPKDSSENATNSHTNNGNSSGSPKMGSRRIFTPHFKLQVLESYRNDNDCKGNQRATARKYNIHRRQIQKWLQCESNLRSSVANNQQQQQQQQQQQQQQQQQQQLLPQQSVSPTPAVKVFHQLSHPLVHQLHHHHAAAVGHHHHHAAHHHAAHHHHAAAAAAAAAAAAAAAAAHHHAAHHLLAANGMVPHPLAAHPHLHVPVAMHPQMQHQKEQQQQQQQLQQEQQQQDQQQSQQETPATIATNGSNQGSSNVLSAAKIAAVVAAAMATSNGNPTPTATIPASSSSSSNTLPSSNNSSCHNSSSSSNSCNSNQVPIQVPILSGSPGSTSSASHIPHVPFAYHHNLHGYLENRLEAVATPAPMDLSLGSSARRQMQLHEKDPSGVDLTFRKRKVITSPMQPDKISKLEEVIKKEPETETENEDVEVDVETEQPEEHKLPSKQVKLFKPYLLDDDEEQDHHHHHHHHRQEDLDEGAAEEEQDDEEESRYADDDEVDSKEAADKKQRRLKKKPSAINEQREPIIWSNHPYPGGCVSPGSSITSSFQCPTSMQQQQTFPVAGGSPNQQFQDNCSSSKATTPLSPFSAPALSPTGFCCPKGSPVSGYESSSSTYSDSGSNYSLNLQLHAVYNDNLMYMQQQQQQQQQQHHLQHQQHLQRWLDQESLATARTSSVNRPLILVADTAPTNLTLVA

Amino acid sequences for entries named in this document (tags omitted).
UniProt P07548: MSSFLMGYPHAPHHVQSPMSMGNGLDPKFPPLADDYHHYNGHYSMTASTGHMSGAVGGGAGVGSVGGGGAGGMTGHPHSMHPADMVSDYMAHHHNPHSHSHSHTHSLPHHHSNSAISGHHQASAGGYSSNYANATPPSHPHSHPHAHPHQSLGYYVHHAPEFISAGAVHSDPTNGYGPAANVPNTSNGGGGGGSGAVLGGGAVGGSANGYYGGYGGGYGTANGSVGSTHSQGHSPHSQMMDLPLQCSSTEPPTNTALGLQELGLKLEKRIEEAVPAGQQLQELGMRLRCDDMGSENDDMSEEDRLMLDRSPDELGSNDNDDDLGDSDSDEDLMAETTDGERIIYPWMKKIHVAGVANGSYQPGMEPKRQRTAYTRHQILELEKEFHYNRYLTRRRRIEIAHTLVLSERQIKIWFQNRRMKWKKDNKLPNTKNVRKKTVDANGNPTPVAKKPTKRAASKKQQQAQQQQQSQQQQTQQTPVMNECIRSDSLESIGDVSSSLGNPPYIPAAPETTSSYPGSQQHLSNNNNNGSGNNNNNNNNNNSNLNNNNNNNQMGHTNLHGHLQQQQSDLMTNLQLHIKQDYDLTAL

Results on 4 molecules are retold here after article PMC2646128.

These are yes or no findings as the source states them, for the method shown.

The assay deals with Deformed (D. melanogaster) (UniProt P07548). The assay can be described thus: native gel or EMSA; translation lysates with Dfd protein and with a co-regulatory factor on conserved boxes 1 to 3 of the rpr-4S3/3' enhancer as shift probes; 1 mM ZnSO4 for Disco. (Mobility shift assays separate free from complexed probe on a gel.)
B1: the binding result is reported as “no binding”. With B2 the entry was “no binding”; with B3, “no binding”; with B4, “no binding”.
